# Laboratory results taken from the supplement of paper PMC10849652.
# Sequences of proteins named here, by UniProt entry; tags and fusion partners are left off. A change or cut given only in a name is not applied to a line headed by its entry.
# UniProt Q9UK99: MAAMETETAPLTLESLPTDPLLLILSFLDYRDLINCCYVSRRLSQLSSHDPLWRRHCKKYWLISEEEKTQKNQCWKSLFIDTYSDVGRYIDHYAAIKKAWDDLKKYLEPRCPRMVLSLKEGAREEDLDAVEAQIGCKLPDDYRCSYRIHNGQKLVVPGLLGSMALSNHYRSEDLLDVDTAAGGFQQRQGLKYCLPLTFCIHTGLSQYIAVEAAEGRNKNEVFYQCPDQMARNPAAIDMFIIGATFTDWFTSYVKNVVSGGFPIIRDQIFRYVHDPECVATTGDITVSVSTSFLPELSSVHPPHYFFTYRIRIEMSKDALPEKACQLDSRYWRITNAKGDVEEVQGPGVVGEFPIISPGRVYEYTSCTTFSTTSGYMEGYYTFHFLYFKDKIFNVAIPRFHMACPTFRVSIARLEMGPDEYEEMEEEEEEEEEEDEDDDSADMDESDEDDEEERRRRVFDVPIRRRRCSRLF
# UniProt O95302: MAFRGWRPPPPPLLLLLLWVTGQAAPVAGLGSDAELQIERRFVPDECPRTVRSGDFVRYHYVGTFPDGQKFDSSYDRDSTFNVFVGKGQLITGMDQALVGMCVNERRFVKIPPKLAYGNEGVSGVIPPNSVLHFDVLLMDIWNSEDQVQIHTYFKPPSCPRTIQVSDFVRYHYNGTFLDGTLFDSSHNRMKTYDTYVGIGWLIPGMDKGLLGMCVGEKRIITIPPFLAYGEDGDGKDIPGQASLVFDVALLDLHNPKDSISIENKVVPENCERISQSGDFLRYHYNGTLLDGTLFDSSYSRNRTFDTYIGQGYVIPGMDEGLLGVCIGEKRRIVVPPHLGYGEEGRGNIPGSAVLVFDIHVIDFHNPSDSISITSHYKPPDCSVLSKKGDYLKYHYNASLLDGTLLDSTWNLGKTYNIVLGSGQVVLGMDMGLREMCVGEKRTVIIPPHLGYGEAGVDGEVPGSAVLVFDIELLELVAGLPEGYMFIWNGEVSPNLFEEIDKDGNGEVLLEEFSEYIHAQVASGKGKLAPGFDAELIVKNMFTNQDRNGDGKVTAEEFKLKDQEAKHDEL
# UniProt Q6P3S6: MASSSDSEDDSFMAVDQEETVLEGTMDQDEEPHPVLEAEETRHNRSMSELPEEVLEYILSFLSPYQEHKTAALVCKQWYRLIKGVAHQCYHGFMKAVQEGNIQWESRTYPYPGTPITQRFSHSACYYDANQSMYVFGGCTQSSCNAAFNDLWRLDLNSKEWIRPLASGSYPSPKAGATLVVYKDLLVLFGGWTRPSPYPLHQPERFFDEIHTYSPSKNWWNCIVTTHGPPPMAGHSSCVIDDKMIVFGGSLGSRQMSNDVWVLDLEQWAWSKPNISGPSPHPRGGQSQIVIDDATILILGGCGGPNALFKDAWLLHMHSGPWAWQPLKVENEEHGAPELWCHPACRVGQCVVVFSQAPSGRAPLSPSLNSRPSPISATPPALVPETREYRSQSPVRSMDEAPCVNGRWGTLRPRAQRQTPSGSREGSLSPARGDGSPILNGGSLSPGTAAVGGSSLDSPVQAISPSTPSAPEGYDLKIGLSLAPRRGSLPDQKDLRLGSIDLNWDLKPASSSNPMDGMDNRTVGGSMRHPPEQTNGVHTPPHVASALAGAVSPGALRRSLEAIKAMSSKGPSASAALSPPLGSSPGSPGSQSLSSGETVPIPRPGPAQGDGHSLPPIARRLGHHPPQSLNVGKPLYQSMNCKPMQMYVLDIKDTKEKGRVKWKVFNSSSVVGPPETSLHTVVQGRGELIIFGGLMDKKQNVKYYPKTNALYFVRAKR
# UniProt Q86UX7, whole entry, looked up: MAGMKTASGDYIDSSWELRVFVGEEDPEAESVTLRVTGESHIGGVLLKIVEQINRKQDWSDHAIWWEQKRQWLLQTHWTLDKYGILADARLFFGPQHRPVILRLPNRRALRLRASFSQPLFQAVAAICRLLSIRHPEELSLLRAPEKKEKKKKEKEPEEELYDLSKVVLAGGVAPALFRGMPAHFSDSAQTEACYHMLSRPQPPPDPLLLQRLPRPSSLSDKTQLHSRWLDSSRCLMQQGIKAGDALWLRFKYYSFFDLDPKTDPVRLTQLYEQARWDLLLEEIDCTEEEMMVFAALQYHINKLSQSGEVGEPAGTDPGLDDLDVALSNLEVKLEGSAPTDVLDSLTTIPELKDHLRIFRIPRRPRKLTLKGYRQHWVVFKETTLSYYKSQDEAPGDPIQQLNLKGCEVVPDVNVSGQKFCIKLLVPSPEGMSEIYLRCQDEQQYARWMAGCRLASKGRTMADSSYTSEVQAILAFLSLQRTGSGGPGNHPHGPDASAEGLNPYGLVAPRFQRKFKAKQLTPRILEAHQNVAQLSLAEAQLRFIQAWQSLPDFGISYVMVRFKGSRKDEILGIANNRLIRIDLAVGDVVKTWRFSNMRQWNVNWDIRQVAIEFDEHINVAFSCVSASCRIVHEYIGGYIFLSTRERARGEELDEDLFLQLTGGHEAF
# UniProt Q14192: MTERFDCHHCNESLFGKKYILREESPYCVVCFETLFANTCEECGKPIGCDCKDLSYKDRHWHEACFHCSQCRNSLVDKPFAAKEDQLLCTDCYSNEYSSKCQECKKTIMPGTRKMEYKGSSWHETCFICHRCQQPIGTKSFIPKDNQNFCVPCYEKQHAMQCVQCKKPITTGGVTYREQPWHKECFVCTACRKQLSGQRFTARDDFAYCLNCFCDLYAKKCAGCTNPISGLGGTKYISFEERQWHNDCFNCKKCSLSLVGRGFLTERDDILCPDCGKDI
# UniProt Q14315, whole entry, looked up: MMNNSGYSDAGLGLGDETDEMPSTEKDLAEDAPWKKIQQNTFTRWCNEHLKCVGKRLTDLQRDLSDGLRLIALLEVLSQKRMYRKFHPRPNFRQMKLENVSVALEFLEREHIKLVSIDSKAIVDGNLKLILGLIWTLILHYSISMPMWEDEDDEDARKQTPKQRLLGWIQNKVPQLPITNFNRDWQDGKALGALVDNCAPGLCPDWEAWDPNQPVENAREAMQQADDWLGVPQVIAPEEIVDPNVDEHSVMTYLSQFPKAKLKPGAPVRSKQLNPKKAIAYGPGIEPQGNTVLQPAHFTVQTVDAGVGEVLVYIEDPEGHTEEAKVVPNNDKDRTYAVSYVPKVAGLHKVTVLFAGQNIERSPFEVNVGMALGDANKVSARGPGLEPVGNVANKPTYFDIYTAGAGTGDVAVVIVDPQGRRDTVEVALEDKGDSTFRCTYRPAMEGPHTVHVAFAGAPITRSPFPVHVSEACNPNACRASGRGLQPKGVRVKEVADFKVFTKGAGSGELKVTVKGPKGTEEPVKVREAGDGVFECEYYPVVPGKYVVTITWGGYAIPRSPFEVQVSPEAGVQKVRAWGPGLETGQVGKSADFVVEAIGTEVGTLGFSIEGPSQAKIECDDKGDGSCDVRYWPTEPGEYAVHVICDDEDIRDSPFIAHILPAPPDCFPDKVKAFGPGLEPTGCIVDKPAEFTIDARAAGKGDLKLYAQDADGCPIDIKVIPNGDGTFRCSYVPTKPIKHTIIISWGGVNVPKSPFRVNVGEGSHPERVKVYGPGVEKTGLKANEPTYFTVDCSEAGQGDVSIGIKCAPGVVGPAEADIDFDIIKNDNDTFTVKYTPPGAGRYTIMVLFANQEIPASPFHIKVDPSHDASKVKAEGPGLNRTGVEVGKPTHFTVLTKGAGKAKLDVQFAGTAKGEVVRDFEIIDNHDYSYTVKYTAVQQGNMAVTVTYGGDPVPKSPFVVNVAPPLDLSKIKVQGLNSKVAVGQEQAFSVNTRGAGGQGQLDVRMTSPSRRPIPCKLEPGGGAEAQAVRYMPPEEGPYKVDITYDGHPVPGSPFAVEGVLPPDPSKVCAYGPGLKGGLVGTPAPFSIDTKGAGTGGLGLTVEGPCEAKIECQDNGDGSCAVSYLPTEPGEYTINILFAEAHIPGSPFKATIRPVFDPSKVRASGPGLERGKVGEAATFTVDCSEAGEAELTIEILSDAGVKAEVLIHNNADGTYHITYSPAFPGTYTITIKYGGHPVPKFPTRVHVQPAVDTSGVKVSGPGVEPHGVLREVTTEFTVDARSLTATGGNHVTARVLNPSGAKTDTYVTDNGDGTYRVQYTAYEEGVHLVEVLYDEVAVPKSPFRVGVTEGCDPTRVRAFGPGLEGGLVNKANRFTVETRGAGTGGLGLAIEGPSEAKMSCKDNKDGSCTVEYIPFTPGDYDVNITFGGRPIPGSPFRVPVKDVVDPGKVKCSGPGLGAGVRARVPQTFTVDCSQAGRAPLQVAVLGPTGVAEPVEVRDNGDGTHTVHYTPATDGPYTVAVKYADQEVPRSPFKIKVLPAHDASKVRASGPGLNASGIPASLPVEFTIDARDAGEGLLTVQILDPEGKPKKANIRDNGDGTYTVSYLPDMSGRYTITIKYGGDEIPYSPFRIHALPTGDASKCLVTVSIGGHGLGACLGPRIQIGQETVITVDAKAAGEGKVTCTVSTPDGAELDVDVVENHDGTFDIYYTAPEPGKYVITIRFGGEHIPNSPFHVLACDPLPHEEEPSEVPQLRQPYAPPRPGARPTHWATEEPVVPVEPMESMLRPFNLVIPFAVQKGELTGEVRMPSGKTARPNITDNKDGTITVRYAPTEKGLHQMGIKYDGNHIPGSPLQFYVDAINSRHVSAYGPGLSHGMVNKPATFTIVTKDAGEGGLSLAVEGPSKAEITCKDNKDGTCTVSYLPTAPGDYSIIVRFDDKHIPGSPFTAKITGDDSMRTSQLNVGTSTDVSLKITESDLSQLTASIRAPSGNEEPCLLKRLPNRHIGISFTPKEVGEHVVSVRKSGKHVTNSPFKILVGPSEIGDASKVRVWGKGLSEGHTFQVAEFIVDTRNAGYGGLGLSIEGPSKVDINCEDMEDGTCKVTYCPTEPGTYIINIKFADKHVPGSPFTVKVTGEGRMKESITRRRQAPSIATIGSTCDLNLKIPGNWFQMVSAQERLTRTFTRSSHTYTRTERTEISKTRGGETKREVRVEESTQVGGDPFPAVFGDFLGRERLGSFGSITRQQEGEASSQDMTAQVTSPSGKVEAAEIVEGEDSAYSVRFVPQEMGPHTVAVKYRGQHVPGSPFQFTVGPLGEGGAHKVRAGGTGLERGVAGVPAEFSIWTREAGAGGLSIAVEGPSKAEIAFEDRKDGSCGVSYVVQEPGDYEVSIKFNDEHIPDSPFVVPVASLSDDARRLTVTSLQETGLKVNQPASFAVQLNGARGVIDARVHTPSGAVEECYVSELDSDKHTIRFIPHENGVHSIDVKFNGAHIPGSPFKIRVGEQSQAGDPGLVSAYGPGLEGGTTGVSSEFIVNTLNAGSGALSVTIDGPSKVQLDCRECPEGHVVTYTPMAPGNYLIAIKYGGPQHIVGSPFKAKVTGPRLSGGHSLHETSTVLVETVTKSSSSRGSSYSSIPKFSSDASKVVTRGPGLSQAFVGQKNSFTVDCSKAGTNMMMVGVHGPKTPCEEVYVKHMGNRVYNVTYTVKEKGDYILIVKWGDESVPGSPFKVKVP
# UniProt O95466, whole entry, looked up: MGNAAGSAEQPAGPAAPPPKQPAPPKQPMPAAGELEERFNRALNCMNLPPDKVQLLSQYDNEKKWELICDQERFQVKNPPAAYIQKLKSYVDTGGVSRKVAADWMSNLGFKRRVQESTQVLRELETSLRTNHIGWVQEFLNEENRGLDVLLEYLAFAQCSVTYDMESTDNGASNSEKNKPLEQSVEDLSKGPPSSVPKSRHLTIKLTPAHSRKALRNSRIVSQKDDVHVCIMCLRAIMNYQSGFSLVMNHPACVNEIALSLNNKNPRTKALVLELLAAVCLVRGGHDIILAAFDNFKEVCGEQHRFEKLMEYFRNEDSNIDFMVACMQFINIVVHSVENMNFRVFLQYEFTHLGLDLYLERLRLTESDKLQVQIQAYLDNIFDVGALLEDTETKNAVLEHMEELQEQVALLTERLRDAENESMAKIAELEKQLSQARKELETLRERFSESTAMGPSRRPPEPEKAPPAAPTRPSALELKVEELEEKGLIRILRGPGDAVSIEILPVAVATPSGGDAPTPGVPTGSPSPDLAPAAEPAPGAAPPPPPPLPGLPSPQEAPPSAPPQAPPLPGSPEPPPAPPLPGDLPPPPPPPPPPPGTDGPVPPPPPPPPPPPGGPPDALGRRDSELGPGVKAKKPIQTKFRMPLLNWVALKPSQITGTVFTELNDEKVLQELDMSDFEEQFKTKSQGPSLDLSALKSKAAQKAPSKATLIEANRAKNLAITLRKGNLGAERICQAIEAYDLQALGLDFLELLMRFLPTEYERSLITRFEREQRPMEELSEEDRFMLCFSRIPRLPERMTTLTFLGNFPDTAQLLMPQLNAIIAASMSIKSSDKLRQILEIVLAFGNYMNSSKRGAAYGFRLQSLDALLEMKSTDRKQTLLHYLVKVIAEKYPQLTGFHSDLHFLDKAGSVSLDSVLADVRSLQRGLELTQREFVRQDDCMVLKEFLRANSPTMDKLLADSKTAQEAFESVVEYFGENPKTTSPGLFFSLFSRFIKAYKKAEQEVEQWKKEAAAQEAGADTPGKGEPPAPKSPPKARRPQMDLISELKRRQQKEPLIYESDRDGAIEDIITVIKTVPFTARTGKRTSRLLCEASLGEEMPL
# The other results are listed elsewhere or left out.
# How the values were obtained:
# Test in all cases: log2 fold change, soluble protein after heating vs DMSO (PISA); higher = thermal stabilisation; K562 lysate, 10 uM; active = over 0.2 and 3.5 SD of the protein, either way, in both replicates (recomputed)
# vemurafenib = compound: CCCS(=O)(=O)Nc1ccc(F)c(C(=O)c2c[nH]c3ncc(-c4ccc(Cl)cc4)cc23)c1F [vemurafenib]
# Outline: (§1)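 K562 pellets were dounce-homogenised in PBS pH 7.4 containing 1 mM MgCl2, and the crude extract, at 1 mg/mL protein, was exposed to 10 μM compound for 30 min. Aliquots were heated for 3 min across 48°C-58°C, pooled, brought to 0.5% NP-40 at 4°C and spun at 21,000xg for 90 min, with the supernatant taken as soluble protein. TMTpro 16plex LC-MS/MS with equalised channel sums quantified that protein. Values are log-two fold changes in thermal stability relative to solvent controls, taken from duplicates.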
# [1] = compound: CCCS(=O)(=O)Nc1ccc(F)c(C(=O)c2c[nH]c3ncc(Cl)cc23)c1F
# Outline: as §1
# barasertib = compound: CCN(CCCOc1ccc2c(Nc3cc(CC(=O)Nc4cccc(F)c4)[nH]n3)ncnc2c1)CCOP(=O)(O)O [barasertib]
# Outline: as §1
# [2] = compound: CC[C@@H]1C(=O)N(C)c2cnc(Nc3ccc(C(=O)NC4CCN(C)CC4)cc3OC)nc2N1C1CCCC1
# Outline: as §1
# volasertib = compound: CC[C@@H]1C(=O)N(C)c2cnc(Nc3ccc(C(=O)N[C@H]4CC[C@H](N5CCN(CC6CC6)CC5)CC4)cc3OC)nc2N1C(C)C [volasertib]
# Outline: as §1
# [3] = compound: CCn1c(C(=O)N(C2CC2)C2CC2)cc2c3c(ncn3C)c(Nc3cc(C)n(C)n3)nc21
# Outline: as §1
# [4] = compound: CCn1cc(-c2ccnc3[nH]c(-c4cccc(CN(C)C)c4)cc23)c(-c2ccc(NC(=O)N(C)C)cc2)n1
# Outline: as §1
# [5] = compound: CN1CCC(CNc2ccc3ncc(-c4cccc(OC(F)(F)F)c4)n3n2)CC1
# Outline: as §1
# saracatinib = compound: CN1CCN(CCOc2cc(OC3CCOCC3)c3c(Nc4c(Cl)ccc5c4OCO5)ncnc3c2)CC1 [saracatinib]
# Outline: as §1
# sotrastaurin = compound: CN1CCN(c2nc(C3=C(c4c[nH]c5ccccc45)C(=O)NC3=O)c3ccccc3n2)CC1 [sotrastaurin]
# Outline: as §1
# alvocidib = compound: CN1CC[C@H](c2c(O)cc(O)c3c(=O)cc(-c4ccccc4Cl)oc23)[C@H](O)C1 [alvocidib]
# Outline: as §1
# Tubastatin A = compound: CN1CCc2c(c3ccccc3n2Cc2ccc(C(=O)NO)cc2)C1 [Tubastatin A]
# Outline: as §1
# [6] = compound: CNC(=O)C1=CC=CC=C1NC2=NC(=NC=C2Cl)NC3=C(C=C(C=C3)N4CCOCC4)OC
# Outline: as §1
# defactinib = compound: CNC(=O)c1ccc(Nc2ncc(C(F)(F)F)c(NCc3nccnc3N(C)S(C)(=O)=O)n2)cc1 [defactinib]
# Outline: as §1
# [7] = compound: CNc1nc(-c2ccc3c(N)n[nH]c3c2)cc(N2C[C@@H](C(=O)NC3CCCCC3)CC[C@H]2C)n1
# Outline: as §1
# encorafenib = compound: COC(=O)N[C@@H](C)CNc1nccc(-c2cn(C(C)C)nc2-c2cc(Cl)cc(NS(C)(=O)=O)c2F)n1 [encorafenib]
# Outline: as §1
# [8] = compound: COC(=O)[C@H](CCSC)NC(=O)C1=C(C=C(C=C1)NC[C@H](CS)N)C2=CC=CC=C2
# Outline: as §1
# alisertib = compound: COc1cc(Nc2ncc3c(n2)-c2ccc(Cl)cc2C(c2c(F)cccc2OC)=NC3)ccc1C(=O)O [alisertib]
# Outline: as §1
# [9] = compound: COc1cc2nc(-c3cc(F)ccc3O)nc(N[C@@H]3CNC[C@H]3C(C)(C)O)c2cc1OC
# Outline: as §1
# gefitinib = compound: COc1cc2ncnc(Nc3ccc(F)c(Cl)c3)c2cc1OCCCN1CCOCC1 [gefitinib]
# Outline: as §1
Target,log2 fold change (vemurafenib),log2 fold change [1],log2 fold change (barasertib),log2 fold change [2],log2 fold change (volasertib),log2 fold change [3],log2 fold change [4],log2 fold change [5],log2 fold change (saracatinib),log2 fold change (sotrastaurin),log2 fold change (alvocidib),log2 fold change (Tubastatin A),log2 fold change [6],log2 fold change (defactinib),log2 fold change [7],log2 fold change (encorafenib),log2 fold change [8],log2 fold change (alisertib),log2 fold change [9],log2 fold change (gefitinib)
FBXO3 (UniProt Q9UK99),inactive: -0.018,inactive: 0.031,inactive: -0.089,inactive: -0.04,inactive: -0.061,inactive: 0.029,inactive: -0.122,inactive: 0.038,inactive: -0.022,inactive: 0.017,inactive: 0.016,inactive: -0.016,inactive: 0.033,inactive: 0,inactive: -0.076,inactive: 0.033,inactive: -0.019,inactive: -0.018,inactive: 0.002,inactive: 0.025
FIBP (UniProt O43427),inactive: -0.011,inactive: 0.041,inactive: 0.105,active: -0.236,inactive: -0.013,inactive: -0.001,inactive: -0.028,inactive: -0.021,inactive: 0.039,inactive: 0.008,inactive: 0.03,inactive: 0.003,inactive: 0.05,inactive: 0.1,inactive: -0.079,inactive: 0.036,inactive: 0.094,inactive: 0.012,inactive: 0.002,inactive: -0.005
FKBP9 (UniProt O95302),inactive: 0.003,inactive: 0.043,inactive: 0.008,inactive: 0.053,inactive: 0.005,inactive: -0.049,inactive: 0.025,inactive: 0.014,inactive: 0.024,inactive: -0.011,inactive: -0.007,inactive: 0.024,inactive: 0.06,inactive: -0.054,inactive: 0.013,inactive: -0.019,inactive: -0.024,inactive: -0.005,inactive: 0.015,inactive: 0.021
FLCN (UniProt Q8NFG4),inactive: 0.019,inactive: -0.052,inactive: 0.028,inactive: 0.007,inactive: 0.009,inactive: -0.048,inactive: 0.204,inactive: -0.02,inactive: 0.024,inactive: 0.031,inactive: -0.026,inactive: -0.012,inactive: -0.004,inactive: -0.001,inactive: 0.031,inactive: 0.008,inactive: 0.123,inactive: 0.083,inactive: 0.049,inactive: 0.039
FBXO42 (UniProt Q6P3S6),inactive: 0.042,inactive: 0.019,inactive: 0.065,inactive: 0.056,inactive: -0.022,inactive: -0.019,inactive: -0.133,inactive: 0.033,inactive: 0.056,inactive: 0.033,inactive: -0.045,inactive: 0.081,inactive: 0.019,inactive: -0.078,inactive: -0.037,inactive: -0.022,inactive: 0.087,inactive: -0.053,inactive: -0.019,inactive: -0.013
FERMT3 (UniProt Q86UX7),inactive: 0.002,inactive: -0.012,inactive: -0.008,inactive: -0.003,inactive: 0.003,inactive: -0.019,inactive: -0.071,inactive: 0.02,inactive: -0.014,inactive: 0.014,inactive: -0.028,inactive: 0.009,inactive: 0.014,inactive: -0.02,inactive: 0.02,inactive: -0.007,inactive: -0.023,inactive: 0.022,inactive: 0.009,inactive: 0.019
FDX2 (UniProt Q6P4F2),inactive: 0.022,inactive: -0.011,inactive: 0.166,inactive: 0.069,inactive: 0.038,inactive: -0.047,inactive: -0.264,inactive: -0.003,inactive: -0.122,inactive: -0.027,inactive: -0.016,inactive: 0.093,inactive: -0.001,inactive: -0.017,inactive: -0.478,inactive: -0.33,inactive: -0.313,inactive: 0.07,inactive: -0.021,inactive: -0.041
FKBP2 (UniProt P26885),inactive: -0.008,inactive: 0.04,inactive: -0.042,inactive: 0.015,inactive: 0.021,inactive: -0.037,inactive: 0.292,inactive: -0.02,inactive: -0.064,inactive: 0.096,inactive: 0.035,inactive: 0.038,inactive: 0.012,inactive: 0.018,inactive: 0.015,inactive: -0.015,inactive: 0.002,inactive: -0.033,inactive: -0.018,inactive: 0.018
FLNA (UniProt P21333),inactive: 0,inactive: 0.002,inactive: -0.012,inactive: 0.015,inactive: 0.009,inactive: -0.021,inactive: -0.076,inactive: 0.056,inactive: -0.007,inactive: -0.023,inactive: -0.016,inactive: 0.007,inactive: -0.001,inactive: -0.005,inactive: 0.007,inactive: -0.034,inactive: -0.049,inactive: 0.004,inactive: 0.009,inactive: -0.023
FHL2 (UniProt Q14192),inactive: 0.045,inactive: 0.034,inactive: -0.007,inactive: 0.068,inactive: 0.067,inactive: -0.026,inactive: -0.064,inactive: 0.042,inactive: -0.011,inactive: -0.111,inactive: -0.025,inactive: 0.048,inactive: 0.044,inactive: 0.008,inactive: 0.037,inactive: 0.034,inactive: -0.064,inactive: -0.014,inactive: 0.014,inactive: -0.042
FAU (UniProt E9PR30),inactive: -0.009,inactive: -0.015,inactive: -0.17,inactive: 0.005,inactive: -0.002,inactive: 0.036,active: 0.33,inactive: -0.076,inactive: -0.042,inactive: -0.012,inactive: 0.073,inactive: 0.02,inactive: -0.087,inactive: 0.003,inactive: 0.013,inactive: -0.04,inactive: 0.013,inactive: 0.035,inactive: -0.016,inactive: -0.044
FLNC (UniProt Q14315),inactive: 0.005,inactive: -0.004,inactive: -0.014,inactive: 0.038,inactive: 0.027,inactive: -0.017,inactive: -0.071,inactive: 0.07,inactive: -0.001,inactive: -0.023,inactive: -0.031,inactive: 0.027,inactive: 0.001,inactive: -0.016,inactive: 0.02,inactive: -0.007,inactive: -0.036,inactive: 0.002,inactive: 0.005,inactive: -0.012
FBXO38 (UniProt Q6PIJ6),inactive: -0.042,inactive: -0.024,inactive: 0.052,inactive: -0.121,inactive: 0.037,inactive: 0.028,inactive: 0.006,inactive: 0.036,inactive: -0.039,inactive: 0.027,inactive: -0.008,inactive: -0.043,active: -0.616,inactive: 0.019,inactive: 0.01,inactive: -0.004,inactive: -0.038,inactive: -0.015,inactive: -0.062,inactive: 0.056
FDPS (UniProt P14324),inactive: 0.027,inactive: 0.004,inactive: -0.002,inactive: -0.021,inactive: -0.07,inactive: -0.038,inactive: -0.05,inactive: -0.038,inactive: 0.014,inactive: -0.013,inactive: 0.029,inactive: -0.098,inactive: 0.012,inactive: -0.013,inactive: 0.02,inactive: -0.001,inactive: 0.123,inactive: 0.008,inactive: -0.001,inactive: -0.033
FLII (UniProt Q13045),inactive: -0.02,inactive: 0.026,inactive: -0.01,inactive: -0.063,inactive: -0.023,inactive: 0.006,inactive: 0.043,inactive: -0.062,inactive: 0.007,inactive: 0.038,inactive: 0.014,inactive: -0.034,inactive: -0.009,inactive: -0.001,inactive: -0.022,inactive: -0.026,inactive: 0.146,inactive: -0.008,inactive: -0.018,inactive: -0.027
FMNL1 isoform 3 (UniProt O95466),inactive: 0.022,inactive: -0.008,inactive: -0.002,inactive: 0.028,inactive: -0.088,inactive: -0.035,inactive: 0.026,inactive: -0.032,inactive: 0.007,inactive: -0.006,inactive: 0.011,inactive: -0.053,inactive: 0.015,inactive: 0.021,inactive: 0.015,inactive: 0.093,inactive: 0.018,inactive: 0.029,inactive: 0.044,inactive: -0.061

# Some of the entries above, set out differently.
Target | log2 fold change (vemurafenib) | log2 fold change [1] | log2 fold change (barasertib) | log2 fold change [2] | log2 fold change (volasertib) | log2 fold change [3] | log2 fold change [4] | log2 fold change [5] | log2 fold change (saracatinib) | log2 fold change (sotrastaurin) | log2 fold change (alvocidib) | log2 fold change (Tubastatin A) | log2 fold change [6] | log2 fold change (defactinib) | log2 fold change [7] | log2 fold change (encorafenib) | log2 fold change [8] | log2 fold change (alisertib) | log2 fold change [9] | log2 fold change (gefitinib)
FLNC (UniProt Q14315) | inactive: 0.005 | inactive: -0.004 | inactive: -0.014 | inactive: 0.038 | inactive: 0.027 | inactive: -0.017 | inactive: -0.071 | inactive: 0.07 | inactive: -0.001 | inactive: -0.023 | inactive: -0.031 | inactive: 0.027 | inactive: 0.001 | inactive: -0.016 | inactive: 0.02 | inactive: -0.007 | inactive: -0.036 | inactive: 0.002 | inactive: 0.005 | inactive: -0.012
FBXO38 (UniProt Q6PIJ6) | inactive: -0.042 | inactive: -0.024 | inactive: 0.052 | inactive: -0.121 | inactive: 0.037 | inactive: 0.028 | inactive: 0.006 | inactive: 0.036 | inactive: -0.039 | inactive: 0.027 | inactive: -0.008 | inactive: -0.043 | active: -0.616 | inactive: 0.019 | inactive: 0.01 | inactive: -0.004 | inactive: -0.038 | inactive: -0.015 | inactive: -0.062 | inactive: 0.056
